According to PMC12679573:
No constants are given. Whether binding was seen depends on the method and setting. In cells and extracts the contact can be indirect. Some binding calls cover weakened binding; strength is not graded here.

Protein sequences, listed by entry. Tags and fused reporters are not part of them. Residues count along the entry.
UniProt P38647, residues 47-679: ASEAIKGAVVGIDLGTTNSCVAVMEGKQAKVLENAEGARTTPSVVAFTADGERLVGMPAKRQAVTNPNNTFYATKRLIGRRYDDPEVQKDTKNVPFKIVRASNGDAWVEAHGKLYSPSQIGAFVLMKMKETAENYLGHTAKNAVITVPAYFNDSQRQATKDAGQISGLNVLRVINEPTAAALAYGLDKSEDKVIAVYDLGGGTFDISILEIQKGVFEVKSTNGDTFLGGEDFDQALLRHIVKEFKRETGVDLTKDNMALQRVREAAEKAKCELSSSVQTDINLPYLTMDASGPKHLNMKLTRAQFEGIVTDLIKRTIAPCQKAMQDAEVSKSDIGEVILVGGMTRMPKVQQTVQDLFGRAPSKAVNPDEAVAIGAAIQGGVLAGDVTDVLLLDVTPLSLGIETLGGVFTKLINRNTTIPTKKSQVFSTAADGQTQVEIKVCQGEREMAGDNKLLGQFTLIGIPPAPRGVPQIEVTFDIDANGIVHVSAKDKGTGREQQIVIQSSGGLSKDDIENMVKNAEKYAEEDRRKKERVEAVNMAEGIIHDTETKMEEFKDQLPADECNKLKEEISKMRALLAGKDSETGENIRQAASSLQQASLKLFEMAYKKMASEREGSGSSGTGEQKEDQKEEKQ
UniProt P11881: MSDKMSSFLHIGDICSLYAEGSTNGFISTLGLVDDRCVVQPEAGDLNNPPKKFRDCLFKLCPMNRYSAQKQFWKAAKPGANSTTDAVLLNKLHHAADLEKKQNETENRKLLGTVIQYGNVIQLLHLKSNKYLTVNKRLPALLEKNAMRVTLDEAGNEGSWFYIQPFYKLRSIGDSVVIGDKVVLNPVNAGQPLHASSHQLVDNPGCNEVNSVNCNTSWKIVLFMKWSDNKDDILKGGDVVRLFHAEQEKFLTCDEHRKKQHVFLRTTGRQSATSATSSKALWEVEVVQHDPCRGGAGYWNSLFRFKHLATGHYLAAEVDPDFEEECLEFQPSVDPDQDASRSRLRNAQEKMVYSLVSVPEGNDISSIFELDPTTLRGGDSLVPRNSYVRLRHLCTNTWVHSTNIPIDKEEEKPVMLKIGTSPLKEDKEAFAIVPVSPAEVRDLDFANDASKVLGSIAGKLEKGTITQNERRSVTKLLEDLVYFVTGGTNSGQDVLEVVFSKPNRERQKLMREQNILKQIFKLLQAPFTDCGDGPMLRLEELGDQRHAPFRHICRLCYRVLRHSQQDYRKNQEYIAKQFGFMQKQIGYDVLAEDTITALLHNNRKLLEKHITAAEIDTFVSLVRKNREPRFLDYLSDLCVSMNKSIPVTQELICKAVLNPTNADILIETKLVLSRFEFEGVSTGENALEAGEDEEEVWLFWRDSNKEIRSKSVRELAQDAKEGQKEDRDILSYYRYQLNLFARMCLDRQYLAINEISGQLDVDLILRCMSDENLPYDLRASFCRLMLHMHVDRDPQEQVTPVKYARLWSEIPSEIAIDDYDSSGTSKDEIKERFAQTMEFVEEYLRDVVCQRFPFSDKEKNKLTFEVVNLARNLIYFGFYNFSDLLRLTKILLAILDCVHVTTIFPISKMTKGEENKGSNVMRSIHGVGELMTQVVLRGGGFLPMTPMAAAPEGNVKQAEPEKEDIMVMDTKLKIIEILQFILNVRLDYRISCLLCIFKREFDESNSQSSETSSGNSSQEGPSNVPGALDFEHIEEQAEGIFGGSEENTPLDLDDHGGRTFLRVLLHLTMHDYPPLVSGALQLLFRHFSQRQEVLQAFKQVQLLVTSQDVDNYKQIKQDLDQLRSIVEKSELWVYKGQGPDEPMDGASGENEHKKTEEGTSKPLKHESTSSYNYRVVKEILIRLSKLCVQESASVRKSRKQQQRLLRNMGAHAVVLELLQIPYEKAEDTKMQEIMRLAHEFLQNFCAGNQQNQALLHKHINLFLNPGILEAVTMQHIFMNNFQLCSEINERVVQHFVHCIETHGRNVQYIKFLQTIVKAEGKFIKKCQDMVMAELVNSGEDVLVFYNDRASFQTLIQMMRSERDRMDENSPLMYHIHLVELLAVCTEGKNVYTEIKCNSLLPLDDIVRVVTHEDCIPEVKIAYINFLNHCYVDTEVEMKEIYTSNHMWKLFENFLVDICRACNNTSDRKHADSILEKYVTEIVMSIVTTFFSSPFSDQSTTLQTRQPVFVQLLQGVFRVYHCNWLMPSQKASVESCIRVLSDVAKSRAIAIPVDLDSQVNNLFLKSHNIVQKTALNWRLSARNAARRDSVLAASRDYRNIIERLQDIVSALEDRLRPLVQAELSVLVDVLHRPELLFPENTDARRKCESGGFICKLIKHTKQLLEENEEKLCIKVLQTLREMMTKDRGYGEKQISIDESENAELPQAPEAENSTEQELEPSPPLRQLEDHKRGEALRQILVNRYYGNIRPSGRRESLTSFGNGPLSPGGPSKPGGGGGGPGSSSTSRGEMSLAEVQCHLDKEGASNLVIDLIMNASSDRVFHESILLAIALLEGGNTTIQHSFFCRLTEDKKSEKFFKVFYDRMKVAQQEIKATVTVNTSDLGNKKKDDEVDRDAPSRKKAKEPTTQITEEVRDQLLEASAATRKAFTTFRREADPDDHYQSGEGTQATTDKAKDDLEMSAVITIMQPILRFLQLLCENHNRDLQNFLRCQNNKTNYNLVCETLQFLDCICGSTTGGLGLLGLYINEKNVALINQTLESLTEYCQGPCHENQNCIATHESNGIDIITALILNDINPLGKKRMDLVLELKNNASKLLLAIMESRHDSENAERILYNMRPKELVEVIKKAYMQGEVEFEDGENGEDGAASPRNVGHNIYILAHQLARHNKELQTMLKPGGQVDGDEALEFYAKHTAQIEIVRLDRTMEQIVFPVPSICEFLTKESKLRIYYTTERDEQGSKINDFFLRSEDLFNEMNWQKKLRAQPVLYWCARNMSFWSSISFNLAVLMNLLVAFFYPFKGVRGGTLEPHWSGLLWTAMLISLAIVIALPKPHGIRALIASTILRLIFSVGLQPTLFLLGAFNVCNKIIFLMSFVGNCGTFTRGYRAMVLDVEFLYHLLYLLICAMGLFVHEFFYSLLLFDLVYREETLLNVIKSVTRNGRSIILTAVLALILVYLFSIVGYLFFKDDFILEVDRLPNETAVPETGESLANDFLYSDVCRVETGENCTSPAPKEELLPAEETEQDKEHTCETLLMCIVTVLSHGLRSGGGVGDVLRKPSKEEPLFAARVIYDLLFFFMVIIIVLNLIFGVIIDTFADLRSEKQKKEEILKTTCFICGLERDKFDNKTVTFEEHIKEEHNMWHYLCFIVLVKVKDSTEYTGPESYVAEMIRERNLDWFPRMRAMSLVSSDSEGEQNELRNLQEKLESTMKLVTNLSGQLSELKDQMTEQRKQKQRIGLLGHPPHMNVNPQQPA
UniProt Q8K2B3, residues 43-664: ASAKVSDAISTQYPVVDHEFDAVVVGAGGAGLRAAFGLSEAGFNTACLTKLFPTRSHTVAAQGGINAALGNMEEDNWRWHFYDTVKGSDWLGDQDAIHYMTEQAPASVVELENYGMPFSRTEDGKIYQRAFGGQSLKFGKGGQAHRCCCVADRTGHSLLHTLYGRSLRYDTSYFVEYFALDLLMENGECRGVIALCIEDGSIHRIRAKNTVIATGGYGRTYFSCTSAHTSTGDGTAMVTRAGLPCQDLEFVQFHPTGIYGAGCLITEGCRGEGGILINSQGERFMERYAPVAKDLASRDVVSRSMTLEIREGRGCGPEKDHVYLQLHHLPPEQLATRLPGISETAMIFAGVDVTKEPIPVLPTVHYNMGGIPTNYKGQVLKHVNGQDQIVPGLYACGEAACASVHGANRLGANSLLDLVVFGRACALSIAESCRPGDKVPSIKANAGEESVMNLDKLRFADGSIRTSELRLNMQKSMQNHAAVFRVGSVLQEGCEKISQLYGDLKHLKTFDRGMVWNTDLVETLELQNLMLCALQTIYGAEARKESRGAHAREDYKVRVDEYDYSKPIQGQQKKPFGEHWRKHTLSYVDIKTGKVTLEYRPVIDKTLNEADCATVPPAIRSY

Columns and labels:
[1] = target: GRP75 (mouse (endogenous in primary hepatocytes)) (UniProt P38647); test: proximity ligation; Duolink in situ PLA on fixed, permeabilised primary hepatocytes of WT, hKO and hKI mice after PHx; primary antibodies to VDAC1, GRP75, IP3R1; confocal microscopy
[2] = target: T1, SDHB (mouse (endogenous in primary hepatocytes)) (UniProt Q9CQA3); test: co-IP; whole-cell extracts (1% dodecyl maltoside) of primary hepatocytes of WT and hKO mice after PHx; antibody cross-linked to protein A/G agarose, overnight at 4 °C (results: by SDHB; methods: SDHA antibody)
T1 sequence: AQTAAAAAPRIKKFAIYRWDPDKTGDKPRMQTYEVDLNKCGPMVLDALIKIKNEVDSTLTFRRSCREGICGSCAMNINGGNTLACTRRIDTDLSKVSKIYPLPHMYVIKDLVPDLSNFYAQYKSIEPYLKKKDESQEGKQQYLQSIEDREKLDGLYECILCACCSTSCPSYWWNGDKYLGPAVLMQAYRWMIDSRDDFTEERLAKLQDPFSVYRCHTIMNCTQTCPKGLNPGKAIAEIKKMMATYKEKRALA

binding [1]	binding [2]	Substance
binds	–	IP3R1 (from UniProt P11881 1-2749) (receptor)
–	binds	SDHA (from UniProt Q8K2B3 43-664) (enzyme)
